# According to PubChem BioAssay AID2685 (National Center for Advancing Translational Sciences (NCATS), 2010):
# This is one part of the list. These are further read-outs of the screen, such as a control signal, another cell line or another target. No call is given for them. Most of these compounds were active or inconclusive in the main read-out, so they are no random draw. Potencies come from curve fits of mixed quality, noted in brackets.
# Experiment: qHTS Assay for Lipid Storage Modulators in Drosophila S3 Cells;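 on cell number change: cells counted by Cell Tracker Red CMTPX staining in the red channel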
# Details: BODIPY lipid droplet fluorescence, 18-24 h; for cell number change: measured here: cell count max response, cells fed with added oleic acid
# In short: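 Drosophila S3 cells loaded with oleic acid (400 uM, as added) and compounds at several concentrations; lipid droplets imaged by 488-nm laser-scanning cytometry, 500–530 nm intensity and object ratio to cell channel. Percent activity normalized to 20 uM Triacsin C.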
# [1] = measured here: lipid fluorescence (Fed channel) AC50, cells fed with added oleic acid
# [2] = measured here: cell number channel AC50, cells fed with added oleic acid
SMILES,cell number change [%],AC50 [1],AC50 [2]
Cc1csc2c(C#N)c(=O)c3c(n12)CCC3,11.1,"16.4 µM [rising, partial curve]",–
Cc1ccc(CNC(=O)c2ccc(NS(=O)(=O)c3cccs3)cc2)cc1,25.2,"29.1 µM [rising, single point]",–
COc1cccc(Oc2ccc(C(F)(F)F)cc2N)c1,-28.3,"29.1 µM [falling, single point]",–
CN(C)C=NC(=O)c1[nH]c2ccc(Cl)cc2c1-c1ccccc1,-52.8,–,"13 µM [falling, partial curve]"
CCOC(=O)N1CCN(C(=O)C2CCC(CNS(=O)(=O)c3ccccc3)CC2)CC1 (centres undefined),-2.45,"2.06 µM [rising, partial curve, poor fit]","1.84 µM [rising, partial curve, poor fit]"
CNC(=S)N1N=C(c2ccc(C)cc2)CC1c1ccc(Br)cc1 (centres undefined),56.9,"2.59 µM [rising, partial curve, poor fit]","8.2 µM [rising, partial curve, poor fit]"
O=C(NCc1cccnc1)c1ccc(Cl)c(S(=O)(=O)Nc2ccccc2C(=O)NCc2cccnc2)c1,8.09,"0.517 µM [falling, full curve, poor fit]",–
CN(C)S(=O)(=O)n1cnc(C(CCO)c2ncn(S(=O)(=O)N(C)C)c2CCCO)c1 (centres undefined),27,"11.6 µM [rising, single point]",–
O=C(Cn1cnc2cc([N+](=O)[O-])ccc2c1=O)Nc1ccc2c(c1)CCC2,–,–,"0.184 µM [rising, full curve]"
COc1ccc(N2C(=O)CC(c3ccccc3)C2=O)cc1 (centres undefined),7.47,"0.291 µM [falling, full curve, poor fit]",–
Cc1ccc(-c2csc3nc[nH]c(=S)c23)cc1,-0.112,"29.1 µM [falling, single point]",–
S=C(NCc1ccccc1)N1CCCCC1,34.5,"6.51 µM [falling, partial curve, poor fit]","23.1 µM [rising, single point]"
COc1cc2c(cc1OC)C(/C=C/c1ccco1)=NCC2,5.04,"0.82 µM [falling, full curve, poor fit]",–
Cc1ccc(S(=O)(=O)NC2=C(N3CCN(c4ccccc4F)CC3)C(=O)c3ccccc3C2=O)cc1,-11.3,"11.6 µM [falling, partial curve, poor fit]",–
COc1cccc(OC)c1C(=O)NC(=S)Nc1ccc2oc(=O)ccc2c1,-16.7,"23.1 µM [falling, partial curve]",–
Cc1ccc(CNc2cc(-c3nn4c(C)nnc4s3)ccc2C)s1,5.95,"6.51 µM [rising, single point]",–
COc1ccccc1C(=O)NCC(=O)N1CC=C(c2ccccc2)CC1,-4.79,"0.146 µM [rising, full curve, poor fit]",–
CCOC(=O)C1CCCN(c2c(C(=O)c3ccccc3)cnc3ccc(OC)cc23)C1 (centres undefined),36.6,–,"18.4 µM [rising, single point]"
CSc1nnc([C@@H](NC(=O)OC(C)(C)C)C(C)C)o1,-9.74,"0.00461 µM [falling, full curve, poor fit]","0.651 µM [rising, single point]"
O=C(NCc1ccccn1)c1cc(-c2ccncc2)nc2ccccc12,–,"1.64 µM [rising, partial curve]","4.61 µM [rising, single point]"

SMILES,cell number change [%],AC50 [1],AC50 [2]
CC1CN(Cc2nc3c(c(=O)n(C)c(=O)n3C)n2CCN2CCOCC2)CC(C)O1 (centres undefined),-40.2,"32.6 µM [rising, single point]","32.6 µM [falling, single point]"
Cc1ccc(COc2cccc3c2CCN(Cc2ccc(F)cc2)C3=O)cc1,-17.6,–,–
O=C(Cn1[nH]c(=O)c2ccccc2c1=O)NCC1COc2ccccc2O1 (centres undefined),-18.7,"29.1 µM [falling, single point]",–
COc1ccc(-c2nnc3n2CCCCC3)cc1OC,7.83,–,–
CCC(=O)Nc1ccc(Nc2nc(C)c([N+](=O)[O-])c(Nc3ccc(NC(=O)CC)cc3)n2)cc1,-19.3,"7.31 µM [falling, partial curve]",–
O=C(COc1ccc(Cl)cc1[N+](=O)[O-])NC1CCCCC1,50.4,–,–
CCC(=O)NC(c1cccs1)c1ccc2cccnc2c1O (centres undefined),-6.47,"7.31 µM [falling, partial curve]",–
O=C(Cc1ccccc1)Nc1ccc(N2CCCC2)cc1,1.58,"4.61 µM [rising, full curve, poor fit]",–
O=C(CCCn1c(=S)[nH]c2cc3c(cc2c1=O)OCO3)NCc1cccc(Cl)c1,8.25,"20.6 µM [rising, partial curve]","6.51 µM [rising, single point]"
CCNC(=S)N1CCn2c(nc3ccccc32)C1,1.27,"0.366 µM [falling, full curve, poor fit]",–
C=CCN1C(=O)c2ccc(C(=O)OCC(=O)Nc3ccccc3OC)cc2C1=O,-51.3,–,"23.1 µM [falling, partial curve, poor fit]"
COc1cccc(OC)c1C(=O)NC(=S)NCc1cccnc1,27.4,–,"0.164 µM [rising, full curve, poor fit]"
O=C(N/N=C/c1ccc2c(c1)OCO2)c1cc(-c2ccc(F)cc2)nc2ccccc12,19.6,–,–
COc1ccccc1CNC(=O)c1ccc(Cl)c(NC2=NC3CS(=O)(=O)CC3S2)c1 (centres undefined),6.63,–,"0.82 µM [rising, full curve, poor fit]"
COc1ccc(-n2c(SCC(=O)OC(C)C)nnc2-c2ccccn2)cc1,-7.1,"20.6 µM [rising, partial curve]","6.51 µM [falling, single point]"
CCC(NC(=O)C1CCCO1)c1ccccc1 (centres undefined),12.6,"29.1 µM [rising, single point]",–
COc1ccc(OC)c(S(=O)(=O)CC(O)CS(=O)(=O)c2ccccc2)c1 (centres undefined),40.9,"3.66 µM [rising, full curve, poor fit]","29.1 µM [rising, single point]"
CN(CC(=O)Nc1ccc(C(N)=O)cc1)CC(=O)Nc1ccccc1Cl,-2.59,–,–
O=C(Oc1cccc([N+](=O)[O-])c1)c1ccc2c(=O)n3c(nc2c1)CCC3,-6.37,"29.1 µM [falling, single point]",–
O=C(O)CCc1ccc(-c2cccs2)n1NC(=O)c1ccco1,-12.2,"7.31 µM [falling, partial curve]",–

# Filtered by structure: the entries above containing an NH in an aromatic ring.
SMILES,cell number change [%],AC50 [1],AC50 [2]
CN(C)C=NC(=O)c1[nH]c2ccc(Cl)cc2c1-c1ccccc1,-52.8,–,"13 µM [falling, partial curve]"
Cc1ccc(-c2csc3nc[nH]c(=S)c23)cc1,-0.112,"29.1 µM [falling, single point]",–
O=C(Cn1[nH]c(=O)c2ccccc2c1=O)NCC1COc2ccccc2O1 (centres undefined),-18.7,"29.1 µM [falling, single point]",–
O=C(CCCn1c(=S)[nH]c2cc3c(cc2c1=O)OCO3)NCc1cccc(Cl)c1,8.25,"20.6 µM [rising, partial curve]","6.51 µM [rising, single point]"

# Further entries:

SMILES,cell number change [%],AC50 [1],AC50 [2]
Cc1cc(C)cc(N(CC(=O)N2CC=C(c3ccccc3)CC2)S(=O)(=O)c2c(C)noc2C)c1,-14.9,–,–
CC(=O)c1cccc(NC(=O)NNC(=O)c2ccc(Cl)cc2Cl)c1,9.68,"14.6 µM [rising, partial curve, poor fit]",–
COc1ccc(C(c2sc3nc(C)nn3c2O)N2CCN(CCO)CC2)cc1OC (centres undefined),–,"6.51 µM [falling, full curve]",–
Cc1cc(SCC#N)nc2ccccc12,7.07,–,–
Cc1ccc(NC(=S)Nc2cc(C(=O)O)ccc2N2CC3CC(C2)c2cccc(=O)n2C3)cc1C (centres undefined),-23.2,"0.651 µM [falling, partial curve]","0.731 µM [falling, full curve, poor fit]"
CN(C(=S)NC(=O)c1ccc(Cl)cc1)C1CCCCC1,–,"29.1 µM [rising, single point]",–
O=C(COC(=O)c1ccc(O)cc1O)Nc1ccc2ccccc2c1,18.7,"20.6 µM [rising, single point]",–
Cc1noc(C)c1C(=O)NCCC1=CCCCC1,7.14,–,–
CCN(CC)S(=O)(=O)c1ccc(OC)c(NC(=S)Nc2cc(C)ccc2C)c1,-35.7,"0.651 µM [falling, single point]","32.6 µM [falling, single point]"
CSc1n[nH]c(-c2sccc2OCc2ccc(C)cc2)n1,149,"29.1 µM [rising, single point]",–
COCCCNC(=O)C1CC(=O)N(CCc2ccc(F)cc2)C1 (centres undefined),-2.62,–,–
O=C(CSc1ncccn1)NC(=O)Nc1ccc2c(c1)OCCO2,62.1,–,–
C#CCOCCOCCOCCNc1nc(N2CCN(C(=O)CCCCCCCCCCNC(=O)[C@H](CCCCN)n3cc(C[C@@H](C)CC)nn3)CC2)nc(N2CCN(C(=O)CCCCCCCCCCNC(=O)[C@@H]([C@H](C)O)n3cc(C)nn3)CC2)n1,-88.4,–,"7.31 µM [falling, partial curve]"
Cc1ccc([N+](=O)[O-])cc1NC(=S)NCCc1ccccc1,-39.1,–,"32.6 µM [falling, single point]"
CCOc1ccc(OCC)c(NC(=O)C2CCCN(C(=O)c3ccc(Cl)cc3)C2)c1 (centres undefined),16.8,"6.51 µM [falling, single point]",–
COc1cc(/C=N/NC(=O)[C@H](Cc2c[nH]c3ccccc23)NC(=O)OCC(C)C)cc([N+](=O)[O-])c1O,10.3,"0.517 µM [rising, full curve]",–
COc1ccc(/C=N/NC(=S)NCc2ccccc2)cc1OC,–,–,"6.51 µM [rising, single point]"
CCC(CC)NC(=O)c1ccc(Cl)cc1,–,–,"0.58 µM [rising, single point]"
O=C(Cn1cc2c(n1)CCCC2)N1CCCC1,-7.76,"1.3 µM [falling, full curve]","0.0461 µM [falling, full curve, poor fit]"
